Test results published in PubChem BioAssay AID1671190 (National Center for Advancing Translational Sciences (NCATS), 2021).
“And” between values parts separate entries of the source, which are not always exact repeats. Equal entries are not always repeated. Hit rate of the full screen: of about 580,000 compounds, about 6,100 (1.1%) were called active. The inconclusive results got no clear call from the source; some entries with a clear call stand among them for comparison. The call rests on the fitted dose curve; in most records, active means well fitted inhibition curve with a large enough effect; inconclusive means small, poorly fitted or top-dose-only effect, or another doubt; inactive means no such curve, though single readings can be large or run the other way. Where the call is inconclusive, the potency comes from a doubtful curve fit.

Amino acid sequences for entries named in this document (tags omitted).
UniProt P18054, whole entry, looked up: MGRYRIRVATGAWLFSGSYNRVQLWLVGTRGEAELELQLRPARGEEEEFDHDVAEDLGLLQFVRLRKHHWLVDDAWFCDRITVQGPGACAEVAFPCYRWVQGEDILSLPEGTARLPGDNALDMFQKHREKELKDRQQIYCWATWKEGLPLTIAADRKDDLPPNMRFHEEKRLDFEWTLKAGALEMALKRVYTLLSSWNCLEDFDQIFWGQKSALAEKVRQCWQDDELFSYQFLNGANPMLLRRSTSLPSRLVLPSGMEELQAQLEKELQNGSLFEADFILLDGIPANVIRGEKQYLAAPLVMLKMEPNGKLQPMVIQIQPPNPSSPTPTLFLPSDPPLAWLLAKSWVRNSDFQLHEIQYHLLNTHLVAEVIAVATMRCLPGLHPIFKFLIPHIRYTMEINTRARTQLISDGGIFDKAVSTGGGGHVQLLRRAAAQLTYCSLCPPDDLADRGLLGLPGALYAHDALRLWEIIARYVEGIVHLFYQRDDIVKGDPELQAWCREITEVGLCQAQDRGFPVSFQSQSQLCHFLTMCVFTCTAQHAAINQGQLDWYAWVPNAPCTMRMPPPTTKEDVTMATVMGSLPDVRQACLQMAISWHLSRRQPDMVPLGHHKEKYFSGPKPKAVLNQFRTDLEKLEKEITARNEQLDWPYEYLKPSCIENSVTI

The molecules below were run against Polyunsaturated fatty acid lipoxygenase ALOX12 (Homo sapiens) (UniProt P18054) (assay: Primary qHTS assay for inhibitors of human arachidonate 12S-lipoxygenase (ALOX12): Round 2). Details: purified 12hLO, xylenol orange hydroperoxide absorbance; series mostly up to 108 µM.
Outline: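 Purified human 12hLO at 150 nM in 25 mM Hepes, 0.01% Triton X-100, pH 7.0, preincubated 15 min at room temperature with compound. Reaction started with 40 uM arachidonic acid, 30 min at room temperature. Hydroperoxide measured by Fe-xylenol orange, 573/405 nm absorbance ratio.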
Potency means the concentration at half of the fitted maximal effect.

SMILES | Potency
CC(C)(C)CC(C)(C)c1ccc(O)c(Sc2cc(C(C)(C)CC(C)(C)C)ccc2O)c1 | inconclusive: 6.31 µM [inhibitor, full curve]
C(#Cc1cc(-c2ccccc2)nc(-c2ccccc2)c1)c1ccccc1 | inactive
COc1ccc(CNC(=O)Nc2ccc3c(c2)c(=O)n(C)n3Cc2cccc(C(F)(F)F)c2)cc1 | inconclusive: 39.8 µM [inhibitor, partial curve, poor fit]
O=C(O)c1cccc(S(=O)(=O)N2CCC(Cc3ccccc3)CC2)c1 | inactive
O=C(C(c1ccccc1)c1ccccc1)N1CCCc2ccccc21 | inconclusive: 31.6 µM [inhibitor, partial curve, poor fit]
Cc1ccc(-n2c(-c3cc(C)n(C)n3)n[nH]c2=S)cc1 | inconclusive: 39.8 µM [inhibitor, partial curve, poor fit]
Cn1nnnc1SC1CC(=O)N(c2ccccc2)C1=O (stereo not drawn) | inactive
CC(=O)c1ccc(Nc2cnn(C34CC5CC(CC(CC(=O)O)(C5)C3)C4)c(=O)c2Cl)cc1 | inconclusive: 7.94 µM [inhibitor, full curve, poor fit]
Clc1ccccc1N=Nc1ccccn1 | inconclusive: 44.7 µM [inhibitor, partial curve, poor fit]
Cc1ccccc1Oc1nc2c(C)cccn2c(=O)c1/C=C(\C#N)C(=O)Nc1c(C)n(C)n(-c2ccccc2)c1=O | inactive
Cc1ccc(N2C(=O)[C@@H]3[C@H](C2=O)C2c4ccccc4C=CN2[C@@H]3C(=O)c2ccco2)c(C)c1 (stereo partly drawn) | active: 14.1 µM
Cc1nc(C)c(C(=O)NC2CCc3nn(CC4CC4)c(=O)n3CC2)s1 (stereo not drawn) | inactive
CCOC(=O)c1ccccc1NC(=O)NCc1c(-n2cccc2)sc2c1CCN(C)C2 | inactive
Cc1cc(C)c(CNCCS(=O)(=O)c2ccccc2)c(C)c1 | inconclusive: 70.8 µM [inhibitor, partial curve, poor fit]
O=C1NN(c2ccccc2)C(=O)/C1=C/c1ccc(-c2ccc(Cl)c(C(=O)O)c2)o1 | inconclusive: 50.1 µM [inhibitor, partial curve, poor fit]
Cc1nnc(SCc2cc(=O)c3cc(F)ccc3[nH]2)n1C | inconclusive: 141 µM [inhibitor, partial curve, poor fit]
CC(C)(COC(=O)Nc1ccccc1)COC(=O)Nc1ccccc1 | inconclusive: 89.1 µM [inhibitor, single point]
COC(=O)Cc1[nH]n(-c2nc3ccccc3s2)c(=O)c1C(C)=Nc1ccc(C)cc1 | inconclusive: 44.7 µM [inhibitor, partial curve, poor fit]
CCc1cccc2c(C(=O)CSc3nc4ccccc4o3)c[nH]c12 | inconclusive: 89.1 µM [inhibitor, partial curve, poor fit]
COc1ccc(C(=O)NC2CC3CCCC(C2)N3Cc2ccccc2)cc1 (stereo not drawn) | inconclusive: 89.1 µM [inhibitor, partial curve, poor fit]
CC(=O)c1ccc(NC(=O)c2sc3nc(N4CCOCC4)c4c(c3c2N)CC(C)(C)OC4)cc1 | inconclusive: 56.2 µM [inhibitor, partial curve, poor fit]

SMILES | Potency
Cc1ccc(NC(=O)c2ccc3c(O)c(S(=O)(=O)c4ccc(Cl)cc4)c(=O)[nH]c3c2)cc1 | inconclusive: 112 µM [inhibitor, single point]
Cc1cc(=O)[nH]c(SCC(=O)c2ccccc2)c1C#N | inactive
COc1ccc(-c2cc(C(=O)NCCO)c3ccccc3n2)cc1 | inconclusive: 50.1 µM [inhibitor, partial curve, poor fit]
O=C(Nc1nc(-c2ccco2)cs1)c1ccccc1Br | inconclusive: 8.91 µM [inhibitor, full curve]
c1ccc(CN2CCC(Nc3nc(-c4cccs4)nc4ccccc34)CC2)cc1 | inconclusive: 50.1 µM [inhibitor, partial curve, poor fit]
CCOc1ccc(N=c2oc3cc(O)ccc3cc2C(=O)NCC2CCCO2)cc1 (stereo not drawn) | inactive
Nc1nc(Nc2ccccc2)sc1C(=O)c1ccccc1 | inactive
Cc1ccc(NC(=S)NC(NC(=O)N(C)C)C(Cl)(Cl)Cl)cc1 (stereo not drawn) | inconclusive: 63.1 µM [inhibitor, partial curve, poor fit]
CCOc1ccccc1NC(=O)COC(=O)CCOc1cc(C)ccc1C | inconclusive: 89.1 µM [inhibitor, single point]
CSc1ccc(Cl)c(C(=O)NCc2ccc(-n3cccn3)cc2)c1 | inconclusive: 2.82 µM [inhibitor, full curve, poor fit]
O=C(Cn1c(=O)oc2ccccc21)N(Cc1ccccc1)C1CCS(=O)(=O)C1 (stereo not drawn) | inconclusive: 70.8 µM [inhibitor, partial curve, poor fit]
N#Cc1cccc(NC(=O)Nc2ccc(=O)n3c2[C@@H]2C[C@@H](CN(C(=O)COc4ccccc4)C2)C3)c1 | inactive
COc1ccc(N2CCN(C(=O)CCc3cc(OC)c(OC)c(OC)c3)CC2)cc1 | inactive
O=[N+]([O-])c1ccc(NN=Cc2cccc([N+](=O)[O-])c2)cc1 | inconclusive: 50.1 µM [inhibitor, partial curve, poor fit]
N#Cc1ccc(CN2CCCc3cc(F)cc(F)c32)cc1 | inactive
CN(C)S(=O)(=O)c1ccc(NC(=O)CCNC(=O)c2ccco2)cc1 | inconclusive: 89.1 µM [inhibitor, partial curve, poor fit]
CSC1=C(C#N)C(C)C2=C(CC(C)(C)CC2=O)N1 (stereo not drawn) | inactive
COc1ccccc1CNC(=O)Cc1c(C)c2cc3c(C)coc3c(C)c2oc1=O | inactive
Cn1c(CCCNC(=O)c2ccco2)nc2ccccc21 | inconclusive: 79.4 µM [inhibitor, single point]
Cc1ccc2c(c1)sc(=NC(=O)C1CC1)n2C | inconclusive: 89.1 µM [inhibitor, single point]
COc1ccccc1C#CC1=CC(=O)C[C@H](c2ccc(F)cc2)C1 | inconclusive: 39.8 µM [inhibitor, single point]

Two compounds drawn at random from those above, as already listed:
SMILES | Potency
COc1ccccc1CNC(=O)Cc1c(C)c2cc3c(C)coc3c(C)c2oc1=O | inactive
Cc1cc(=O)[nH]c(SCC(=O)c2ccccc2)c1C#N | inactive

Carrying on:

SMILES | Potency
CC(C)c1cccc(C(C)C)c1NC(=O)c1ccc2c(c1)CCC2 | inconclusive: 39.8 µM [inhibitor, single point]
Cc1ccc2nc(/C(C#N)=C\c3ccc(O)cc3)[nH]c2c1 | inconclusive: 89.1 µM [inhibitor, single point]
O=C(NCCOc1ccccc1)c1nc2c(o1)CCN(Cc1ccc3[nH]ccc3c1)CC2 | inconclusive: 39.8 µM [inhibitor, full curve]
Cc1ccccc1Cn1c(=O)n(Cc2ccco2)c(=O)c2sc3ccccc3c21 | inconclusive: 31.6 µM [inhibitor, single point] and inconclusive: 10 µM [inhibitor, full curve]
COC(=O)c1ccccc1NC(=O)C1CC=CCC1C(=O)O (stereo not drawn) | inconclusive: 11.2 µM [inhibitor, partial curve, poor fit]
O=C(Cc1ccc(F)cc1)N1CCN(c2cc(-c3ccc(Cl)cc3)[nH]n2)CC1 | inactive
CCCN1CNC(=S)N(N2CN(CCC)CNC2=S)C1 | active: 12.6 µM
O=C(Nc1ccc(Cl)cc1)[C@@H]1[C@@H]2C(=O)N(c3ccc(Cl)cc3)C(=O)[C@@H]2[C@H]2C=CC=NN21 | inconclusive: 28.2 µM [inhibitor, partial curve, poor fit]
Cc1ccc(NS(=O)(=O)c2ccc(N/N=C/c3cc(C)ccc3C)c([N+](=O)[O-])c2)c(C)c1 | inconclusive: 35.5 µM [inhibitor, partial curve, poor fit]
Cc1n[nH]c(=O)c2c(NC(=O)CSc3nnc(C)n3Cc3ccccc3)oc(C)c12 | inconclusive: 39.8 µM [inhibitor, single point]
CC(c1ccccc1)N(C)C(=O)/C=C/c1ccc(Br)s1 (stereo not drawn) | inconclusive: 25.1 µM [inhibitor, partial curve, poor fit]
Cc1cccc(COCC(Cc2ccccc2)N2CCN(C(=O)c3cccc(Cl)c3)CCC2=O)c1 (stereo not drawn) | inconclusive: 15.8 µM [inhibitor, partial curve, poor fit]
CC1=NN(c2ccccc2)C(=O)C1C(=O)c1cc([N+](=O)[O-])cc([N+](=O)[O-])c1 (stereo not drawn) | inconclusive: 35.5 µM [inhibitor, partial curve, poor fit]
COc1cccc(NC(=O)NOCc2ccccc2)c1 | inactive
COc1ccccc1CNC(=O)c1cccc(S(=O)(=O)N(C)c2ccccc2)c1 | inactive
O=C(N[C@@H]1CN(c2ncccn2)C[C@H]1CO)c1ccc2c(c1)OCO2 | inactive
CN1CCN(C(=O)CN2CCN(C(C(=O)O)c3cn(CCC(=O)O)c4cc(F)ccc34)CC2)CC1 (stereo not drawn) | inconclusive: 1.58 µM [inhibitor, full curve]
Cc1ccc(S(=O)(=O)N2C[C@H]3C(=O)C[C@@H](c4ccc(Cl)cc4)N(S(=O)(=O)c4ccc(C)cc4)[C@H]3C[C@H]2c2ccc(Cl)cc2)cc1 | inconclusive: 112 µM [inhibitor, single point]
O=C(CSc1ccc2ccccc2n1)N1CCC(c2noc3ccc(F)cc23)CC1 | inactive
COc1cccc(CCC(=O)N2CCC3(CC2)N=C(c2ccc(Cl)cc2)NO3)c1 | inconclusive: 79.4 µM [inhibitor, partial curve]
O=C(COc1ccc2ccccc2c1)Nc1ccc(Br)cc1C(=O)O | inconclusive: 7.94 µM [inhibitor, partial curve, poor fit]
